Laboratory results: article PMC2682567
No constants are given. Whether binding was seen depends on the method and setting. Some entries that bind do so weakly or less than the wild type.

Molecular target: T1, IRF3 (endogenous, MEF cells) (mouse (endogenous in MEF cells)), P70671
T1 chain: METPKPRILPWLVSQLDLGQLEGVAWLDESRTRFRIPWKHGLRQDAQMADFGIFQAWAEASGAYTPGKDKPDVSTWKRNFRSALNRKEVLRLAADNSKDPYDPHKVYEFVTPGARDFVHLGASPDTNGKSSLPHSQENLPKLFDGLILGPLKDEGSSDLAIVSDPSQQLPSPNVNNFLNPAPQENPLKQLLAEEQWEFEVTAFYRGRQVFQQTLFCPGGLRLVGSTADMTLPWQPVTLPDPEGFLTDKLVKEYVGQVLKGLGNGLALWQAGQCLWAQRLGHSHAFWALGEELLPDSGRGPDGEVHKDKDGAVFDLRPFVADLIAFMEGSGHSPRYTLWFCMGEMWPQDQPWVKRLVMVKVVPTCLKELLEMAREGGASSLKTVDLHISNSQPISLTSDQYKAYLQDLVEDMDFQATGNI
Experiment: native gel or EMSA
Conditions: remark: other sources report otherwise

B1: IRF3 (endogenous, MEF cells), P70671 1-419 (protein)
chain: T1 chain
- binding: binds
